Assay results as given in the supplement of paper PMC10849652.
The list shows a part of the results.

By UniProt entry, the sequences of proteins in these tests, tags left out. Where a name states a change or a piece, a line headed by the entry shows the natural chain unless it says otherwise.
UniProt O94822: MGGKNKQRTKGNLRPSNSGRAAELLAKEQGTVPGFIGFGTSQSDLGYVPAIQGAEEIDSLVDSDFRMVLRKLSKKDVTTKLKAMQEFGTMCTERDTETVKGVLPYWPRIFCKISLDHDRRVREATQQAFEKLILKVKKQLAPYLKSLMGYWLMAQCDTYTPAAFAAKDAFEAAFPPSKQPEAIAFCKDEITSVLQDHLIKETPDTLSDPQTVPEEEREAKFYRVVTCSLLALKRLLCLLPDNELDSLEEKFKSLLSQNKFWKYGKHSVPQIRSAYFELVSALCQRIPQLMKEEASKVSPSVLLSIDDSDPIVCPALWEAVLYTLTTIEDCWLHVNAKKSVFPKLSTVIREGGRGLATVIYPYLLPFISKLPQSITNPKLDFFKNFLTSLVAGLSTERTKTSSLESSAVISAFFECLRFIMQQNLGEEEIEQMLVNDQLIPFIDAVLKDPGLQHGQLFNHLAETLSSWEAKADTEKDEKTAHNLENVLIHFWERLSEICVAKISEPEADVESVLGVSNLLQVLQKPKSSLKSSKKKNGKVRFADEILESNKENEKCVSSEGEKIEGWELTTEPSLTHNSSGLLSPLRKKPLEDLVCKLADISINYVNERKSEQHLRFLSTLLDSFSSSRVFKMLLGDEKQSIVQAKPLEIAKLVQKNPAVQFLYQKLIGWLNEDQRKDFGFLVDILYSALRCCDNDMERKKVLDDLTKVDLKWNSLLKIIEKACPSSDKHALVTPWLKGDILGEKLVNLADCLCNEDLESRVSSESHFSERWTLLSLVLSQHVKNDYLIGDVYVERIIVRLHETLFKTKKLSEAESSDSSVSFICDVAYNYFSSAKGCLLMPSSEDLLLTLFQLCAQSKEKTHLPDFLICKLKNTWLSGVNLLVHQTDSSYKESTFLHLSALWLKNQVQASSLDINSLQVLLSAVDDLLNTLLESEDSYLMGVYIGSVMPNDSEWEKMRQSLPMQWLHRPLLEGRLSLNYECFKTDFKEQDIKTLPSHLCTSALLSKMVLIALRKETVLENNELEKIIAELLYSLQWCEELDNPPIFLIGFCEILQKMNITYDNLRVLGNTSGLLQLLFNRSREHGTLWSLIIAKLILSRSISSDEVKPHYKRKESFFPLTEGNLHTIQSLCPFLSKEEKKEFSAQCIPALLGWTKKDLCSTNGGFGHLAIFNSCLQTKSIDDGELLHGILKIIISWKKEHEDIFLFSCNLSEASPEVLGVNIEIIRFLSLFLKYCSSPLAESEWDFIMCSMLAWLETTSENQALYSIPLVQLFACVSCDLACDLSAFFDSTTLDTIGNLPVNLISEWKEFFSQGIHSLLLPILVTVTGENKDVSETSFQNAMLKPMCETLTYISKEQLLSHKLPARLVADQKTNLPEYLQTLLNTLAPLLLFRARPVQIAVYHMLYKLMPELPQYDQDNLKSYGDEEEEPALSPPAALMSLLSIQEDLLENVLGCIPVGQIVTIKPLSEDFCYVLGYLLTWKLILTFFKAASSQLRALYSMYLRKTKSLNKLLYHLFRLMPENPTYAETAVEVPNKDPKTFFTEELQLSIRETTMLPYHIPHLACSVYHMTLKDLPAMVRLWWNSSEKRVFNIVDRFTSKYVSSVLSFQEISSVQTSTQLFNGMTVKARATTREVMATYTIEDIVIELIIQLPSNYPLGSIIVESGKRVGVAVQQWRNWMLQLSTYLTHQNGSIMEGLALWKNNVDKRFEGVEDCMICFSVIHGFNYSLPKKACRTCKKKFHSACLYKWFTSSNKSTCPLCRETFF
UniProt P46821: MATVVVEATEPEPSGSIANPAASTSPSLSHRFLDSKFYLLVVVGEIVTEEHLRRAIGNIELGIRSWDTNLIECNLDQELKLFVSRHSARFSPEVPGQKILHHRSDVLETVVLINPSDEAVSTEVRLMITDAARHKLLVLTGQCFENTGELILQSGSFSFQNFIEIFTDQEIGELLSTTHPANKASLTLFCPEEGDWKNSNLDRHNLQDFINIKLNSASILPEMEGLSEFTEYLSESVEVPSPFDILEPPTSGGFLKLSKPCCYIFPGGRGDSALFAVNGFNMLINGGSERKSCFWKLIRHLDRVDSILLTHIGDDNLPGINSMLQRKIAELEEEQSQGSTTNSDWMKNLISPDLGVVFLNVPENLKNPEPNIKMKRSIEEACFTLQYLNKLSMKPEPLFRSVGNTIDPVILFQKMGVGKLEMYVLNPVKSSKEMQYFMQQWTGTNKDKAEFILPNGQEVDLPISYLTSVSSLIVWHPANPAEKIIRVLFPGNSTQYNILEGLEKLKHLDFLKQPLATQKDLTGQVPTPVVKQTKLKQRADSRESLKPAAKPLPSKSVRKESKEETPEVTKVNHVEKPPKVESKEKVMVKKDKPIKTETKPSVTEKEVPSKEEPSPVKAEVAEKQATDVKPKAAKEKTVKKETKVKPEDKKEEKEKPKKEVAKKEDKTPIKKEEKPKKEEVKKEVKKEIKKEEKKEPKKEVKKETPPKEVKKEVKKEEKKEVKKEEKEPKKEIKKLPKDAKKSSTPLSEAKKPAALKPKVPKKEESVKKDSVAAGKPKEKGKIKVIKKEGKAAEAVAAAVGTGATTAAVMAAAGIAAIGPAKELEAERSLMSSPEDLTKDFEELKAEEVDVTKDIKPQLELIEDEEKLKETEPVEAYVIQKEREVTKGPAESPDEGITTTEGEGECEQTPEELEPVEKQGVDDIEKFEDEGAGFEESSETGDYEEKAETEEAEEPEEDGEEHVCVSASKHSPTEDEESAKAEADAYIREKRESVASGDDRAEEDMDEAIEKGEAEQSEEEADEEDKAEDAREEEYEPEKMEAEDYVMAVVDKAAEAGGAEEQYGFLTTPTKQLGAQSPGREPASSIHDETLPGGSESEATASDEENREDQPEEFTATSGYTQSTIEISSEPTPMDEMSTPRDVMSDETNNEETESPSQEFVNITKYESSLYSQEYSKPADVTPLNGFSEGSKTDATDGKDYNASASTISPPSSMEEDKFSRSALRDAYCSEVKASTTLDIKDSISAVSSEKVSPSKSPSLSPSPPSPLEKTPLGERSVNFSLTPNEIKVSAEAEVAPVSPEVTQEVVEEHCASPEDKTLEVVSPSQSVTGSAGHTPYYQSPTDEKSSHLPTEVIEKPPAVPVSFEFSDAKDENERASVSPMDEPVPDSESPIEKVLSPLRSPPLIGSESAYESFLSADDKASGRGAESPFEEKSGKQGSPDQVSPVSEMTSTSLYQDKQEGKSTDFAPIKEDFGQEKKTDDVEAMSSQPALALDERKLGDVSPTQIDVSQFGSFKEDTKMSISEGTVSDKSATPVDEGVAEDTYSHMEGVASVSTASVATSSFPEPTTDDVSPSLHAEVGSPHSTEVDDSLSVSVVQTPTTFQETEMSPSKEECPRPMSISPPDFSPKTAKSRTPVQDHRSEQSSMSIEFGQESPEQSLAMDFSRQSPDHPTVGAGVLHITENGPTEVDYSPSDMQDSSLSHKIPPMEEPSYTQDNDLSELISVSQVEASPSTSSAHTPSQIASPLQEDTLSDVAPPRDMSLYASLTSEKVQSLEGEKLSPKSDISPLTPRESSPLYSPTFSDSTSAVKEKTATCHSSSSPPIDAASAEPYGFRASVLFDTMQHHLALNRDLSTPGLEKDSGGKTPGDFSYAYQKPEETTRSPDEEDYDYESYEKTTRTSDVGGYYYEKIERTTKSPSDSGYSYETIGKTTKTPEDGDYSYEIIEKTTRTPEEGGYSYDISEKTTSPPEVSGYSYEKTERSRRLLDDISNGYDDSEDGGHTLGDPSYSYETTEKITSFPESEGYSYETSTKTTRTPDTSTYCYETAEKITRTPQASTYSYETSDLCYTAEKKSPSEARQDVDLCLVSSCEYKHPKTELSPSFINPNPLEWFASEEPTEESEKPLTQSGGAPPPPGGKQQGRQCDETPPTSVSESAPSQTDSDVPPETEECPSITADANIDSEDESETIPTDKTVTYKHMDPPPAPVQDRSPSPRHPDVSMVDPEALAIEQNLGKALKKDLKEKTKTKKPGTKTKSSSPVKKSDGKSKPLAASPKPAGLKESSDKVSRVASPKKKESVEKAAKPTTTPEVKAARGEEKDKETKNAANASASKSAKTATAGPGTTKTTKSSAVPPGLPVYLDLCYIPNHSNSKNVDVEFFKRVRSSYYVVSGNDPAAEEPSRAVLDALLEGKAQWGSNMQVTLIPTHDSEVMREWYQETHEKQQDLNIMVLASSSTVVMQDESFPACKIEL
UniProt Q15691: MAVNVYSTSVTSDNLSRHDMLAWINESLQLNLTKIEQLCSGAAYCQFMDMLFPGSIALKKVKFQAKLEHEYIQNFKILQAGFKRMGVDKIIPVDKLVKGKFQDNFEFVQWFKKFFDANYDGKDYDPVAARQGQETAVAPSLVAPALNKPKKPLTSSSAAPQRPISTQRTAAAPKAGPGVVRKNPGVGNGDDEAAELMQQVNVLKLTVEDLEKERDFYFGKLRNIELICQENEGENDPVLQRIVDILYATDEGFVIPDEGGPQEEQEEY
UniProt O15479: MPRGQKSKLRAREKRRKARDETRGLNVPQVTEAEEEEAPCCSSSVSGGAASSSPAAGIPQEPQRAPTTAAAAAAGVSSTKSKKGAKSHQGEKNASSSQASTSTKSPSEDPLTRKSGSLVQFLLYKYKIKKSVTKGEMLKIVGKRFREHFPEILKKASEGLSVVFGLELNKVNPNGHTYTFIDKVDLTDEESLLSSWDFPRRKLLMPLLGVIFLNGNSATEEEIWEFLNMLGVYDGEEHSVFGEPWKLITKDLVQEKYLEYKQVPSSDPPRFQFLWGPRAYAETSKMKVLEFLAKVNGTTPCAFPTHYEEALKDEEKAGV
UniProt Q9UBF1: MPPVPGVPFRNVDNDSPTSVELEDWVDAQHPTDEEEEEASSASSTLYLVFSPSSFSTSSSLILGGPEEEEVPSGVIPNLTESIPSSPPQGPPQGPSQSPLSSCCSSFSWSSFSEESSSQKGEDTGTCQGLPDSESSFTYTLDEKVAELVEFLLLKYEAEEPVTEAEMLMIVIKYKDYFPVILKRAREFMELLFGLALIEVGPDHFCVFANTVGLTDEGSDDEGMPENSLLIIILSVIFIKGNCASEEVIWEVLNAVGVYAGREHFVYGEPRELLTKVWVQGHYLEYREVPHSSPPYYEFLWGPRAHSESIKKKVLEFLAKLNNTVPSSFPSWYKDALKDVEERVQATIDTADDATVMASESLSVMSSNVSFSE
UniProt P46734: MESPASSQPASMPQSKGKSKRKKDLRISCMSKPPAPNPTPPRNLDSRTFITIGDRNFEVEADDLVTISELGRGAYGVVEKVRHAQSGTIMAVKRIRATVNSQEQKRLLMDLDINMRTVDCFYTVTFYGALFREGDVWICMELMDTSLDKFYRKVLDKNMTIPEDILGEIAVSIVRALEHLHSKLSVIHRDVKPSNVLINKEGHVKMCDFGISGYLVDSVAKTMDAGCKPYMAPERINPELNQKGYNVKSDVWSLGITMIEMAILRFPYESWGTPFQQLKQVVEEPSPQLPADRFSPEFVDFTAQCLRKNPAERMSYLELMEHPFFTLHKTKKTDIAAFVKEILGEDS
UniProt Q96A72, whole entry, looked up: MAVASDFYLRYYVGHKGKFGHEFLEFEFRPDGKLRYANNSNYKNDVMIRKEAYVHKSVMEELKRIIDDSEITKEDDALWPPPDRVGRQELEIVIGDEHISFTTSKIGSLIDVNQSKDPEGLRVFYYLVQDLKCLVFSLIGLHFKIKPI
UniProt P45985: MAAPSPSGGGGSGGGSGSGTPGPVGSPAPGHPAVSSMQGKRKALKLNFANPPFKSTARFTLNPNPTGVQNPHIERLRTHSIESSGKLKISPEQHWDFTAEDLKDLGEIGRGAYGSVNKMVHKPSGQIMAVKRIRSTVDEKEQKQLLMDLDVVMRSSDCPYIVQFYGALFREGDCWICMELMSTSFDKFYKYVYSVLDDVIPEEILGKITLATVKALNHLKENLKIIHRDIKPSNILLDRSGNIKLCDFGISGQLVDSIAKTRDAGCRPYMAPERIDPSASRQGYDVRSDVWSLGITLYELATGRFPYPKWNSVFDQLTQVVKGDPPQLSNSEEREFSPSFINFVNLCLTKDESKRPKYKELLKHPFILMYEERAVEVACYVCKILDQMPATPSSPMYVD
UniProt Q9NU23: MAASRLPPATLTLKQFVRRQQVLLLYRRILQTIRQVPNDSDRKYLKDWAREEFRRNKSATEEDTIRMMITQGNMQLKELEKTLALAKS
UniProt P31153, whole entry, looked up: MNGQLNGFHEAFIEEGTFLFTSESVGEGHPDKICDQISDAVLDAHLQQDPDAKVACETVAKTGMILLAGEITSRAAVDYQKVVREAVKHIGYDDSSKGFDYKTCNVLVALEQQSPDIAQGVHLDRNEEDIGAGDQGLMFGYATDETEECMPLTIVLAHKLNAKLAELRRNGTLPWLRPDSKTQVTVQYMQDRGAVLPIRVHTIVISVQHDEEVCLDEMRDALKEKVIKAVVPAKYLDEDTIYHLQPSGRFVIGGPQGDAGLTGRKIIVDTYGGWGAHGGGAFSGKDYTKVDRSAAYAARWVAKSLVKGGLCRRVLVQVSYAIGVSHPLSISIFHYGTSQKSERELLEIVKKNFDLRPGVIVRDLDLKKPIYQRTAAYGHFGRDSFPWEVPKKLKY

Assays:
Assay in all cases: log2 fold change, soluble protein after heating vs DMSO (PISA); higher = thermal stabilisation; K562 lysate, 10 uM; active = over 0.2 and 3.5 SD of the protein, either way, in both replicates (recomputed)
vemurafenib = compound: CCCS(=O)(=O)Nc1ccc(F)c(C(=O)c2c[nH]c3ncc(-c4ccc(Cl)cc4)cc23)c1F [vemurafenib]
In short: (§1)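 Pellets of K562 cells were dounce-homogenised in PBS pH 7.4 with 1 mM MgCl2, and the crude extract was held at 1 mg/mL protein for a 30 min treatment with 10 μM compound. Aliquots were heated for 3 min over 48°C-58°C and pooled before NP-40 was added to 0.5% at 4°C. The supernatant from 21,000xg for 90 min was quantified by TMTpro 16plex LC-MS/MS with channel sums equalised. Values are reported from duplicates as log-two fold change in thermal stability relative to solvent controls.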

[1] = compound: CCCS(=O)(=O)Nc1ccc(F)c(C(=O)c2c[nH]c3ncc(Cl)cc23)c1F
In short: as §1

barasertib = compound: CCN(CCCOc1ccc2c(Nc3cc(CC(=O)Nc4cccc(F)c4)[nH]n3)ncnc2c1)CCOP(=O)(O)O [barasertib]
In short: as §1

[2] = compound: CC[C@@H]1C(=O)N(C)c2cnc(Nc3ccc(C(=O)NC4CCN(C)CC4)cc3OC)nc2N1C1CCCC1
In short: as §1

volasertib = compound: CC[C@@H]1C(=O)N(C)c2cnc(Nc3ccc(C(=O)N[C@H]4CC[C@H](N5CCN(CC6CC6)CC5)CC4)cc3OC)nc2N1C(C)C [volasertib]
In short: as §1

[3] = compound: CCn1c(C(=O)N(C2CC2)C2CC2)cc2c3c(ncn3C)c(Nc3cc(C)n(C)n3)nc21
In short: as §1

[4] = compound: CCn1cc(-c2ccnc3[nH]c(-c4cccc(CN(C)C)c4)cc23)c(-c2ccc(NC(=O)N(C)C)cc2)n1
In short: as §1

[5] = compound: CN1CCC(CNc2ccc3ncc(-c4cccc(OC(F)(F)F)c4)n3n2)CC1
In short: as §1

saracatinib = compound: CN1CCN(CCOc2cc(OC3CCOCC3)c3c(Nc4c(Cl)ccc5c4OCO5)ncnc3c2)CC1 [saracatinib]
In short: as §1

sotrastaurin = compound: CN1CCN(c2nc(C3=C(c4c[nH]c5ccccc45)C(=O)NC3=O)c3ccccc3n2)CC1 [sotrastaurin]
In short: as §1

alvocidib = compound: CN1CC[C@H](c2c(O)cc(O)c3c(=O)cc(-c4ccccc4Cl)oc23)[C@H](O)C1 [alvocidib]
In short: as §1

Tubastatin A = compound: CN1CCc2c(c3ccccc3n2Cc2ccc(C(=O)NO)cc2)C1 [Tubastatin A]
In short: as §1

[6] = compound: CNC(=O)C1=CC=CC=C1NC2=NC(=NC=C2Cl)NC3=C(C=C(C=C3)N4CCOCC4)OC
In short: as §1

defactinib = compound: CNC(=O)c1ccc(Nc2ncc(C(F)(F)F)c(NCc3nccnc3N(C)S(C)(=O)=O)n2)cc1 [defactinib]
In short: as §1

[7] = compound: CNc1nc(-c2ccc3c(N)n[nH]c3c2)cc(N2C[C@@H](C(=O)NC3CCCCC3)CC[C@H]2C)n1
In short: as §1

encorafenib = compound: COC(=O)N[C@@H](C)CNc1nccc(-c2cn(C(C)C)nc2-c2cc(Cl)cc(NS(C)(=O)=O)c2F)n1 [encorafenib]
In short: as §1

[8] = compound: COC(=O)[C@H](CCSC)NC(=O)C1=C(C=C(C=C1)NC[C@H](CS)N)C2=CC=CC=C2
In short: as §1

alisertib = compound: COc1cc(Nc2ncc3c(n2)-c2ccc(Cl)cc2C(c2c(F)cccc2OC)=NC3)ccc1C(=O)O [alisertib]
In short: as §1

[9] = compound: COc1cc2nc(-c3cc(F)ccc3O)nc(N[C@@H]3CNC[C@H]3C(C)(C)O)c2cc1OC
In short: as §1

gefitinib = compound: COc1cc2ncnc(Nc3ccc(F)c(Cl)c3)c2cc1OCCCN1CCOCC1 [gefitinib]
In short: as §1

Measured: log2 fold change

LYN (UniProt P07948)
inactive: vemurafenib 0.285 | [1] 0.05 | barasertib 0.258 | [2] -0.067 | volasertib -0.134 | [3] 0.004 | [4] -0.012 | [5] 0.233 | saracatinib 0.605 | sotrastaurin -0.045 | alvocidib 0.026 | Tubastatin A -0.046 | [6] 0.203 | defactinib 0.076 | [7] -0.092 | encorafenib -0.01 | [8] -0.072 | alisertib 0.171 | [9] 0.26 | gefitinib -0.006

LTN1 isoform 3 (UniProt O94822)
inactive: vemurafenib 0.005 | [1] 0.022 | barasertib 0.034 | [2] -0.06 | volasertib -0.041 | [3] -0.004 | [4] 0.035 | [5] -0.106 | saracatinib 0.04 | sotrastaurin 0.03 | alvocidib 0.016 | Tubastatin A -0.259 | [6] -0.014 | defactinib -0.009 | [7] -0.063 | encorafenib 0.034 | [8] -0.072 | alisertib 0.017 | [9] 0.035 | gefitinib -0.021

MAP1B (UniProt P46821)
inactive: vemurafenib -0.01 | [1] -0.004 | barasertib -0.016 | [2] 0.022 | volasertib 0.014 | [3] -0.022 | [4] 0.023 | [5] -0.01 | saracatinib 0 | sotrastaurin 0.012 | alvocidib 0.013 | Tubastatin A 0.032 | [6] 0.011 | defactinib -0.011 | [7] -0.006 | encorafenib -0.013 | [8] -0.01 | alisertib -0.025 | [9] 0.012 | gefitinib -0.021

MAPRE1 (UniProt Q15691)
inactive: vemurafenib 0.006 | [1] -0.04 | barasertib -0.01 | [2] 0.033 | volasertib -0.001 | [3] 0.026 | [4] 0.095 | [5] -0.026 | saracatinib 0.006 | sotrastaurin -0.005 | alvocidib 0.023 | Tubastatin A 0.041 | [6] -0.031 | defactinib 0.004 | [7] -0.04 | encorafenib -0.001 | [8] -0.071 | alisertib -0.002 | [9] -0.026 | gefitinib 0.005

MAGEB2 (UniProt O15479)
inactive: vemurafenib -0.013 | [1] 0.02 | barasertib 0.02 | [2] -0.019 | volasertib 0.017 | [3] -0.013 | [4] -0.003 | [5] 0.01 | saracatinib 0.018 | sotrastaurin 0.018 | alvocidib 0.01 | Tubastatin A -0.003 | [6] 0.051 | defactinib -0.007 | [7] -0.005 | encorafenib 0.041 | [8] -0.032 | alisertib 0.048 | [9] -0.002 | gefitinib -0.018

MAGEC2 (UniProt Q9UBF1)
inactive: vemurafenib 0.012 | [1] -0.01 | barasertib -0.004 | [2] -0.051 | volasertib -0.005 | [3] -0.025 | [4] -0.178 | [5] 0.032 | saracatinib 0.01 | sotrastaurin 0.029 | alvocidib -0.046 | Tubastatin A -0.011 | [6] -0.018 | defactinib 0 | [7] -0.05 | encorafenib 0.007 | [8] -0.037 | alisertib -0.005 | [9] 0.001 | gefitinib 0.032

MAD2L1 (UniProt Q13257)
inactive: vemurafenib -0.017 | [1] 0 | barasertib 0.027 | [2] -0.024 | volasertib 0.031 | [3] 0.023 | [4] -0.207 | [5] 0.079 | saracatinib 0.007 | sotrastaurin 0.017 | alvocidib -0.07 | Tubastatin A 0.008 | [6] 0.027 | defactinib -0.029 | [7] 0.007 | encorafenib 0.007 | [8] 0.001 | alisertib 0.022 | [9] 0.016 | gefitinib 0.018

Reprinted from the listing (2 entries):
MAGEB2 (UniProt O15479)
inactive: vemurafenib -0.013 | [1] 0.02 | barasertib 0.02 | [2] -0.019 | volasertib 0.017 | [3] -0.013 | [4] -0.003 | [5] 0.01 | saracatinib 0.018 | sotrastaurin 0.018 | alvocidib 0.01 | Tubastatin A -0.003 | [6] 0.051 | defactinib -0.007 | [7] -0.005 | encorafenib 0.041 | [8] -0.032 | alisertib 0.048 | [9] -0.002 | gefitinib -0.018

MAGEC2 (UniProt Q9UBF1)
inactive: vemurafenib 0.012 | [1] -0.01 | barasertib -0.004 | [2] -0.051 | volasertib -0.005 | [3] -0.025 | [4] -0.178 | [5] 0.032 | saracatinib 0.01 | sotrastaurin 0.029 | alvocidib -0.046 | Tubastatin A -0.011 | [6] -0.018 | defactinib 0 | [7] -0.05 | encorafenib 0.007 | [8] -0.037 | alisertib -0.005 | [9] 0.001 | gefitinib 0.032

Continued.

LYSMD2 (UniProt Q8IV50)
inactive: vemurafenib -0.041 | [1] -0.003 | barasertib -0.005 | [2] 0.057 | volasertib 0.025 | [3] 0.014 | [4] 0.024 | [5] 0.026 | saracatinib 0.002 | sotrastaurin 0.019 | alvocidib 0.005 | Tubastatin A -0.042 | [6] 0.056 | defactinib 0.029 | [7] 0 | encorafenib 0.002 | [8] -0.044 | alisertib 0.025 | [9] -0.026 | gefitinib 0.046

MAP2K3 isoform 3 (UniProt P46734)
inactive: vemurafenib 0.065 | [1] -0.042 | barasertib 0.032 | [2] -0.125 | volasertib 0.07 | [3] -0.063 | [4] 0.191 | [5] 0.04 | saracatinib 0.113 | sotrastaurin -0.008 | alvocidib 0.05 | Tubastatin A -0.066 | [6] 0.139 | defactinib 0.017 | [7] -0.055 | encorafenib -0.011 | [8] 0.169 | alisertib 0 | [9] -0.171 | gefitinib -0.087

MACF1 (UniProt H3BQK9)
inactive: vemurafenib -0.006 | [1] 0.025 | barasertib 0.033 | [2] -0.039 | volasertib -0.079 | [3] -0.009 | [4] 0.026 | [5] -0.034 | saracatinib 0.042 | sotrastaurin 0.021 | alvocidib 0.003 | Tubastatin A -0.065 | [6] 0.01 | defactinib 0.029 | [7] 0.022 | encorafenib 0.016 | [8] 0.04 | alisertib 0.014 | [9] 0.023 | gefitinib 0

MAP2K2 (UniProt P36507)
inactive: vemurafenib 0.224 | [1] 0.184 | barasertib 0.026 | [2] -0.076 | volasertib -0.089 | [3] 0.008 | [4] 0.252 | [5] -0.047 | saracatinib 0.093 | sotrastaurin -0.002 | alvocidib 0.022 | Tubastatin A -0.026 | [6] 0.198 | defactinib 0.036 | [7] 0.015 | encorafenib -0.046 | [8] -0.006 | alisertib -0.013 | [9] 0.009 | gefitinib -0.013

MAGOHB (UniProt Q96A72)
inactive: vemurafenib 0.018 | [1] 0.002 | barasertib 0.023 | [2] -0.034 | volasertib 0.003 | [3] -0.009 | [4] -0.199 | [5] 0.025 | saracatinib -0.038 | sotrastaurin -0.017 | alvocidib -0.001 | Tubastatin A -0.015 | [6] -0.018 | defactinib -0.047 | [7] -0.008 | encorafenib -0.05 | [8] -0.036 | alisertib 0.041 | [9] -0.019 | gefitinib 0.005

MACC1 (UniProt Q6ZN28)
inactive: vemurafenib -0.015 | [1] 0.066 | barasertib 0 | [2] -0.036 | volasertib 0.004 | [3] -0.016 | [4] -0.016 | [5] 0.006 | saracatinib -0.03 | sotrastaurin 0.023 | alvocidib 0.049 | Tubastatin A -0.052 | [6] 0.021 | defactinib -0.029 | [7] -0.031 | encorafenib 0.023 | [8] 0.026 | alisertib 0.038 | [9] 0.019 | gefitinib 0

MAP2K4 isoform 2 (UniProt P45985)
active: vemurafenib 0.601 | [4] 0.936
inactive: [1] 0.243 | barasertib 0.09 | [2] -0.127 | volasertib -0.01 | [3] 0.04 | [5] -0.063 | saracatinib -0.063 | sotrastaurin 0.002 | alvocidib 0.137 | Tubastatin A -0.08 | [6] 0.081 | defactinib 0.013 | [7] 0.061 | encorafenib 0.122 | [8] 0.087 | alisertib -0.069 | [9] -0.022 | gefitinib -0.032

LYRM2 (UniProt Q9NU23)
inactive: vemurafenib 0.01 | [1] 0.007 | barasertib 0.04 | [2] 0.036 | volasertib 0.029 | [3] -0.005 | [4] -0.083 | [5] -0.022 | saracatinib 0.006 | sotrastaurin 0.118 | alvocidib 0.003 | Tubastatin A 0.048 | [6] -0.019 | defactinib 0.027 | [7] 0.045 | encorafenib -0.024 | [8] 0.028 | alisertib 0.024 | [9] -0.031 | gefitinib -0.005

MAT2A (UniProt P31153)
inactive: vemurafenib -0.011 | [1] -0.023 | barasertib -0.032 | [2] -0.021 | volasertib 0.022 | [3] -0.017 | [4] 0.013 | [5] 0.008 | saracatinib -0.012 | sotrastaurin 0.009 | alvocidib -0.018 | Tubastatin A 0.056 | [6] -0.009 | defactinib -0.019 | [7] -0.018 | encorafenib -0.041 | [8] -0.003 | alisertib -0.013 | [9] 0.009 | gefitinib 0.01
